Measurements published in doi:10.1101/676635.
Results are given in words; binding and its absence hold for the method and conditions named. In cells and extracts the contact can be indirect. Some binding calls cover weakened binding; strength is not graded here.

Molecular target: T1, serum response factor (SRF) (mouse (endogenous in primary mouse dermal fibroblasts)) (UniProt Q9JM73)
T1 sequence: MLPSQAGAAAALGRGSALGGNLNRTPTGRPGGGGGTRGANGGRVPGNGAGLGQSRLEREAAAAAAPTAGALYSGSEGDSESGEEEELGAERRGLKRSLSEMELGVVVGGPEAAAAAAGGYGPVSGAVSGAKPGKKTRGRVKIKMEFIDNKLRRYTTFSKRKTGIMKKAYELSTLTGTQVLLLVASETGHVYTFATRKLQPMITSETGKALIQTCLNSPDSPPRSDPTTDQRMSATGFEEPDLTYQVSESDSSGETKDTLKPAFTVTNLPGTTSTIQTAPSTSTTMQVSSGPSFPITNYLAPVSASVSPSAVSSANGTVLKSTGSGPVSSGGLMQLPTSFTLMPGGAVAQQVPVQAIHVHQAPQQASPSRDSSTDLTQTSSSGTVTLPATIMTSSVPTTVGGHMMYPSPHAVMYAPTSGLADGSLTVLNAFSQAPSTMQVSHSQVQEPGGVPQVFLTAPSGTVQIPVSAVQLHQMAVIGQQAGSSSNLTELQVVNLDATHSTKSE
Test: co-IP

binding: binds
B1: Myocardin-related transcription factor A (MRTF-A) (protein, UniProt Q8K4J6 1-964)
chain: MTLLEPEMLMMAVQSVLQLKLQQRRTREELVSQGIMPPLKSPAAFHEQRRSLERARTEDYLKRKIRSRPERAELVRMHILEETSAEPSLQAKQLKLKRARLADDLNEKIAQRPGPMELVEKNILPVESSLKEAIIVGQVNYPKVADSSSFDEDSSDALSPEQPASHESQGSVPSPLESRVSDPLPSATSISPTQVLSQLPMAPDPGETLFLAEQPPLPPAPLLPPSLANGSIVPTAKPAPTLIKQSQPKSASEKSQRSKKAKELKPKVKKLKYHQYIPPDQKQDKGAPAMDSSYAKILQQQQLFLQLQILNQQQQQQQQQHYNYQAILPAPPKPSAETPGSSAPTPSRSLSTSSSPSSGTPGPSGLARQSSTALAAKPGALPANLDDMKVAELKQELKLRSLPVSGTKTELIERLRAYQDQVSPAPGAPKAPATTSVLSKAGEVVVAFPAALLSTGSALVTAGLAPAEMVVATVTSNGMVKFGSTGSTPPVSPTPSERSLLSTGDENSTPGDAFGEMVTSPLTQLTLQASPLQIVKEEGARAASCCLSPGARAELEGLDKDQMLQEKDKQIEELTRMLQQKQQLVELLRLQLEQQKRAQQPAPASSPVKRESGFSSCQLSCQPQGSAHAFGSGLVVPTTNHGDTQAPAPESPPVVVKQEAGPPEPDLAPSSQLLLGSQGTSFLKRVSPPTLVTDSTGTHLILTVTNKSADGPGLPAGSPQQPLSQPGSPAPGPPAQMDLEHPPQPPFATPTSLLKKEPPGYEETVTQQPKQQENGSSSQHMDDLFDILIQSGEISADFKEPPSLPGKEKSPPAAAAYGPPLTPQPSPLSELPQAAPPPGSPTLPGRLEDFLESSTGLPLLTSGHEGPEPLSLIDDLHSQMLSSSAILDHPPSPMDTSELHFAPEPSSGMGLDLAVGHLDSMDWLELSSGGPVLSLAPLSTAAPSLFSMDFLDGHDLQLHWDSCL
